Reference: PMC7458291
For at least one entry, the source does not settle the construct or the ends of the probe. At least one result comes from cells or an extract, where the contact may be indirect.

How the values were obtained:
p53 [1] = biological target: p53 (UniProt P04637); experiment: competition with a labelled probe; details: excess unlabeled vs biotin RE2; EMSA: 10 mM Tris pH 7.5, 100 mM NaCl, 1 mM EDTA, 1 mM DTT, 5% glycerol, poly(dI-dC), 20 min room temperature; protein in an extract; residues 1-393
p53 [2] = biological target: p53 (UniProt P04637); experiment: EMSA; details: 38HK nuclear extract; EMSA: 10 mM Tris pH 7.5, 100 mM NaCl, 1 mM EDTA, 1 mM DTT, 5% glycerol, poly(dI-dC), 20 min room temperature; protein in an extract; residues 1-393; label: biotin

Sequence | binding result (p53 [1]) | binding result (p53 [2])
CCTCGTGTTACCTGTTCTGTGCTAC (double strand) [ITGA1 p53RE2 WT unlabeled] | binds | –
CCTCGTGTTACCTGTTCTGTGCTAC (double strand) [ITGA1 p53RE2 WT] | – | binds
